Reference: article PMC10743020

The chains behind the UniProt entries cited, without tags or fusion partners. Residues count along the entry.
UniProt Q91W90, residues 34-417: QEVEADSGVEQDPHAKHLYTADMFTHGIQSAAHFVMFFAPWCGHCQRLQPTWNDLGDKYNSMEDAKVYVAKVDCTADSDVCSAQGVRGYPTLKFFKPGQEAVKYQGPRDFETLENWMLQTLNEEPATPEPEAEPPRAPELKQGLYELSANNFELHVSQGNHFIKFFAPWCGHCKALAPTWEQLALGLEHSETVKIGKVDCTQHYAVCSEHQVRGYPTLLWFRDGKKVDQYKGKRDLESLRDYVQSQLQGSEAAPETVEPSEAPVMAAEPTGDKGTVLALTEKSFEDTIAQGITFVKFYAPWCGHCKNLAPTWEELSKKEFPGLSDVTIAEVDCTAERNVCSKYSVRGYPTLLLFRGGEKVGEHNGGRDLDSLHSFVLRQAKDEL
UniProt P38647, residues 47-679: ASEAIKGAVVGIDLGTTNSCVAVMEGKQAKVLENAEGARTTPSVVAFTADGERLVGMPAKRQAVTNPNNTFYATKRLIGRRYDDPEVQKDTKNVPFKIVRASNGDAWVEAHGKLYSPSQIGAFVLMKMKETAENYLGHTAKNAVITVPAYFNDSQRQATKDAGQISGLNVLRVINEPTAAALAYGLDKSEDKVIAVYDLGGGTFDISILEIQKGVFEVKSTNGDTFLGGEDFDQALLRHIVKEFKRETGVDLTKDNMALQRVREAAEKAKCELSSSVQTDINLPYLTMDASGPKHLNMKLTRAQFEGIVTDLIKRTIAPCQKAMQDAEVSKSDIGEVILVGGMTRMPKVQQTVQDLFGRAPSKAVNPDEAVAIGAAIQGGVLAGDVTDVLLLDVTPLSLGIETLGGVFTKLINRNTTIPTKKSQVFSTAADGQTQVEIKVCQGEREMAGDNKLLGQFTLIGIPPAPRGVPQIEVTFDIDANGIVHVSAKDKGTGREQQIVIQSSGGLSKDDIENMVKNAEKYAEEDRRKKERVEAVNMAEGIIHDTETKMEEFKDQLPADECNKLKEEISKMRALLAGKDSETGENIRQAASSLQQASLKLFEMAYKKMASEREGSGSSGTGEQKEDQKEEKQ

Target: Thioredoxin domain-containing 5 (TXNDC5) (mouse (endogenous in AML12)) (UniProt Q91W90)
Assay: affinity purification with mass spectrometry; immunoprecipitation of AML12 WT and TXNDC5-KO lysates with rabbit anti-TXNDC5 on protein A magnetic beads, overnight at 4 °C, PBS-T washes, glycine pH 2.0 elution; LC-MS/MS; proteins found in WT and absent in KO

binding	Molecule
binds	HSPA9 (from UniProt P38647 47-679)
binds	PRDX6 (protein, UniProt O08709 1-224) MPGGLLLGDEAPNFEANTTIGRIRFHDFLGDSWGILFSHPRDFTPVCTTELGRAAKLAPEFAKRNVKLIALSIDSVEDHLAWSKDINAYNGETPTEKLPFPIIDDKGRDLAILLGMLDPVEKDDNNMPVTARVVFIFGPDKKLKLSILYPATTGRNFDEILRVVDSLQLTGTKPVATPVDWKKGESVMVVPTLSEEEAKQCFPKGVFTKELPSGKKYLRYTPQP

These are yes or no findings as the source states them, for the method shown. In cells and extracts the contact can be indirect. These calls come from enrichment with a bait or labelling near it, and not all partners need be listed.
